Reference: US20260258004A1, “CRYSTALLINE FORMS OF (6S)-5-[4'-FLUORO-2-(TRIFLUOROMETHYL)BIPHENYL-4-YL]-6-METHYL-3,6- DIHYDRO-2H-l,3,4-OXADIAZIN-2-ONE” (Bayer Aktiengesellschaft, priority 2022, published 2026)
This continues a long series; more values of the same kind are listed elsewhere.

Assay: Particle size distribution by laser diffraction (Malvern Panalytical Mastersizer 3000, Fraunhofer)
Format: physicochemical
Procedure: The particle size distribution was measured by laser diffraction using the Malvern Panalytical Mastersizer 3000.
The samples are again taken from example 1.6 (probe 1) and example 1.5 (probe 2), the same as used in example 4.
The sample to be analyzed is dispersed in 1 drop of Tween 80 the sample is processed according to ISO13320.
Laser diffraction is an often-used method for determination the particle size of dispersed solid materials. A widened laser beam illuminates a cuvette which contains part of the particles. By diffraction on the particles a characteristic pattern can be mapped on the detector. The resulting diffraction image is the additive overlaying of diffraction images of all particles.
Besides the mentioned detector two additional detectors are mounted in order to detect diffraction light in forward direction (FA1,9), in wide angle (LA1,2) and in back direction (BS1,2). The turbidity of the sample is measured by an extinction sensor. This is necessary to ensure a low particle concentration which is necessary to avoid wrong results by multiple diffraction of light at several particles.
The cuvette used was a wet unit where the suspension is pumped in a closed circuit with a dispersing unit that ensures a separation of single particles by shear forces.
The measurement range of the Malvern 3000 covers a particle size from 1 mm (2 mm) down to 20 nm
The calculation of the particle size distribution from the diffraction patterns was done on basis of theory of Fraunhofer.
This assumption is valid for particle sizes of 10 to 50 μm and above. For smaller particles the light scattering of the particle itself due to optical transparency must be considered which is done in the Mie-theory (not used for our probes). Precondition of the application of the Mie-theory is the knowledge of the refractive and absorption index of the dispersed solids.
Q3 is the cumulative volume distribution, e.g. D50=Q(50%) indicates 50% of the volume part of the sample is smaller than particle size of 50 μm.
The particle size is expressed as an equivalent diameter used in the method recommended by the Malvern Analysis Program and as described in ISO13320.

In the case of C[C@@H]1OC(=O)NN=C1c1ccc(-c2ccc(F)cc2)c(C(F)(F)F)c1 [polymorph A, (6S)-5-[4′-Fluoro-2-(trifluoromethyl)biphenyl-4-yl]-6-methyl-3,6-dihydro-2H-1,3,4-oxadiazin-2-one], the “Cumulative volume distribution Q” value (particle size D 0.0463 μm, 300 s US) is reported as 0%, the “Cumulative volume distribution Q” value (particle size D 0.0463 μm, without US) is reported as 0% and the “Cumulative volume distribution Q” value (particle size D 0.0526 μm, 300 s US) is reported as 0%. For the same compound, the “Cumulative volume distribution Q” value (particle size D 0.0526 μm, without US) was 0%, the “Cumulative volume distribution Q” value (particle size D 0.0597 μm, 300 s US) was 0% and the “Cumulative volume distribution Q” value (particle size D 0.0597 μm, without US) was 0%. The “Cumulative volume distribution Q” value (particle size D 0.0679 μm, 300 s US) was 0%, the “Cumulative volume distribution Q” value (particle size D 0.0679 μm, without US) was 0% and the “Cumulative volume distribution Q” value (particle size D 0.0771 μm, 300 s US) was 0%. The “Cumulative volume distribution Q” value (particle size D 0.0771 μm, without US) was 0%, the “Cumulative volume distribution Q” value (particle size D 0.0876 μm, 300 s US) was 0% and the “Cumulative volume distribution Q” value (particle size D 0.0876 μm, without US) was 0%. The “Cumulative volume distribution Q” value (particle size D 0.0995 μm, 300 s US) was 0%, the “Cumulative volume distribution Q” value (particle size D 0.0995 μm, without US) was 0% and the “Cumulative volume distribution Q” value (particle size D 0.113 μm, 300 s US) was 0%. For the same compound, the “Cumulative volume distribution Q” value (particle size D 0.113 μm, without US) was 0%, the “Cumulative volume distribution Q” value (particle size D 0.128 μm, 300 s US) was 0% and the “Cumulative volume distribution Q” value (particle size D 0.128 μm, without US) was 0%. For the same compound, the “Cumulative volume distribution Q” value (particle size D 0.146 μm, 300 s US) was 0%, the “Cumulative volume distribution Q” value (particle size D 0.146 μm, without US) was 0% and the “Cumulative volume distribution Q” value (particle size D 0.166 μm, 300 s US) was 0%. The “Cumulative volume distribution Q” value (particle size D 0.166 μm, without US) was 0%, the “Cumulative volume distribution Q” value (particle size D 0.188 μm, 300 s US) was 0% and the “Cumulative volume distribution Q” value (particle size D 0.188 μm, without US) was 0%. For the same compound, the “Cumulative volume distribution Q” value (particle size D 0.214 μm, 300 s US) was 0%, the “Cumulative volume distribution Q” value (particle size D 0.214 μm, without US) was 0% and the “Cumulative volume distribution Q” value (particle size D 0.243 μm, 300 s US) was 0%. For the same compound, the “Cumulative volume distribution Q” value (particle size D 0.243 μm, without US) was 0%, the “Cumulative volume distribution Q” value (particle size D 0.276 μm, 300 s US) was 0% and the “Cumulative volume distribution Q” value (particle size D 0.276 μm, without US) was 0%. For the same compound, the “Cumulative volume distribution Q” value (particle size D 0.314 μm, 300 s US) was 0%, the “Cumulative volume distribution Q” value (particle size D 0.314 μm, without US) was 0% and the “Cumulative volume distribution Q” value (particle size D 0.357 μm, 300 s US, listed as Probe 1) was 0.06%. For the same compound, the “Cumulative volume distribution Q” value (particle size D 0.357 μm, without US) was 0%, the “Cumulative volume distribution Q” value (particle size D 0.405 μm, 300 s US, listed as Probe 1) was 0.15% and the “Cumulative volume distribution Q” value (particle size D 0.405 μm, without US) was 0%. The “Cumulative volume distribution Q” value (particle size D 0.46 μm, 300 s US, listed as Probe 1) was 0.27%, the “Cumulative volume distribution Q” value (particle size D 0.46 μm, without US) was 0% and the “Cumulative volume distribution Q” value (particle size D 0.523 μm, 300 s US, listed as Probe 1) was 0.42%. The “Cumulative volume distribution Q” value (particle size D 0.523 μm, without US) was 0%, the “Cumulative volume distribution Q” value (particle size D 0.594 μm, 300 s US, listed as Probe 1) was 0.62% and the “Cumulative volume distribution Q” value (particle size D 0.594 μm, without US) was 0%. The “Cumulative volume distribution Q” value (particle size D 0.675 μm, 300 s US, listed as Probe 1) was 0.85%, the “Cumulative volume distribution Q” value (particle size D 0.675 μm, without US) was 0% and the “Cumulative volume distribution Q” value (particle size D 0.767 μm, 300 s US, listed as Probe 1) was 1.14%. The “Cumulative volume distribution Q” value (particle size D 0.767 μm, without US) was 0%, the “Cumulative volume distribution Q” value (particle size D 0.872 μm, 300 s US, listed as Probe 1) was 1.46% and the “Cumulative volume distribution Q” value (particle size D 0.872 μm, without US) was 0%. For the same compound, the “Cumulative volume distribution Q” value (particle size D 0.991 μm, 300 s US, listed as Probe 1) was 1.84%, the “Cumulative volume distribution Q” value (particle size D 0.991 μm, without US) was 0% and the “Cumulative volume distribution Q” value (particle size D 1.13 μm, 300 s US, listed as Probe 1) was 2.26%. For the same compound, the “Cumulative volume distribution Q” value (particle size D 1.13 μm, without US) was 0%, the “Cumulative volume distribution Q” value (particle size D 1.28 μm, 300 s US, listed as Probe 1) was 2.74% and the “Cumulative volume distribution Q” value (particle size D 1.28 μm, without US) was 0%. For the same compound, the “Cumulative volume distribution Q” value (particle size D 1.45 μm, 300 s US, listed as Probe 1) was 3.26%, the “Cumulative volume distribution Q” value (particle size D 1.45 μm, without US) was 0% and the “Cumulative volume distribution Q” value (particle size D 1.65 μm, 300 s US, listed as Probe 1) was 3.84%. For the same compound, the “Cumulative volume distribution Q” value (particle size D 1.65 μm, without US, listed as Probe 1) was 0.07%, the “Cumulative volume distribution Q” value (particle size D 1.88 μm, 300 s US, listed as Probe 1) was 4.48% and the “Cumulative volume distribution Q” value (particle size D 1.88 μm, without US, listed as Probe 1) was 0.14%. For the same compound, the “Cumulative volume distribution Q” value (particle size D 2.13 μm, 300 s US, listed as Probe 1) was 5.18%, the “Cumulative volume distribution Q” value (particle size D 2.13 μm, without US, listed as Probe 1) was 0.23% and the “Cumulative volume distribution Q” value (particle size D 2.42 μm, 300 s US, listed as Probe 1) was 5.97%. For the same compound, the “Cumulative volume distribution Q” value (particle size D 2.42 μm, without US, listed as Probe 1) was 0.32%, the “Cumulative volume distribution Q” value (particle size D 2.75 μm, 300 s US, listed as Probe 1) was 6.84% and the “Cumulative volume distribution Q” value (particle size D 2.75 μm, without US, listed as Probe 1) was 0.43%. The “Cumulative volume distribution Q” value (particle size D 3.12 μm, 300 s US, listed as Probe 1) was 7.8%, the “Cumulative volume distribution Q” value (particle size D 3.12 μm, without US, listed as Probe 1) was 0.56% and the “Cumulative volume distribution Q” value (particle size D 3.55 μm, 300 s US, listed as Probe 1) was 8.87%. The “Cumulative volume distribution Q” value (particle size D 3.55 μm, without US, listed as Probe 1) was 0.69%, the “Cumulative volume distribution Q” value (particle size D 4.03 μm, 300 s US, listed as Probe 1) was 10.03% and the “Cumulative volume distribution Q” value (particle size D 4.03 μm, without US, listed as Probe 1) was 0.84%. The “Cumulative volume distribution Q” value (particle size D 4.58 μm, 300 s US, listed as Probe 1) was 11.28%, the “Cumulative volume distribution Q” value (particle size D 4.58 μm, without US, listed as Probe 1) was 1.01% and the “Cumulative volume distribution Q” value (particle size D 5.21 μm, 300 s US, listed as Probe 1) was 12.61%. The “Cumulative volume distribution Q” value (particle size D 5.21 μm, without US, listed as Probe 1) was 1.18%.
